Source: publication PMC8765783, “Identification of the potential active site of the septal peptidoglycan polymerase FtsW” (PLoS Genetics, 2022)
No constants are given. Whether binding was seen depends on the method and setting. Binding seen in cells or lysates may run through a third protein. Some results given as binding are weak or reduced against the parent protein; the word gives no strength. Where a sequence is shown, tags or fusion partners need not be part of it.

Target: T1, His-FtsW A135T (E. coli) (UniProt P0ABG4)
T1 sequence: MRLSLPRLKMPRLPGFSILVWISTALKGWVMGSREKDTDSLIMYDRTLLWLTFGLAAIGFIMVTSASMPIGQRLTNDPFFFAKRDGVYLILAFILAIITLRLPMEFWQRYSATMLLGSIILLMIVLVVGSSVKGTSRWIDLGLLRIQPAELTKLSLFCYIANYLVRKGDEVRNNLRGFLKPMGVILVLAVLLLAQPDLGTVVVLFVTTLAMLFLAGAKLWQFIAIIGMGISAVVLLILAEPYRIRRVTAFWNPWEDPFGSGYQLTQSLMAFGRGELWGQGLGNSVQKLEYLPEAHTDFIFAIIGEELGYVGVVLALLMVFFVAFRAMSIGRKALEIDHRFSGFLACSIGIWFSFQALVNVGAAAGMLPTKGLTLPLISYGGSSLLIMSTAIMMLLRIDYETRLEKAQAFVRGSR
Test: pull-down; His-tagged protein co-expressed with the untagged partner in E. coli; membranes solubilised in DDM; His-tagged protein held on a HisTrap column (50 mM Tris-HCl pH 7.5, 300 mM NaCl, 10% glycerol, 1 mM DDM, 50 mM imidazole), eluted with an imidazole gradient; SDS-PAGE with Coomassie, Bocillin FL fluorescence or anti-HA blot

- binding: binds
B1: FtsI(PBP3), untagged (E. coli) (enzyme, UniProt P0AD68 1-577)
chain: MKAAAKTQKPKRQEEHANFISWRFALLCGCILLALAFLLGRVAWLQVISPDMLVKEGDMRSLRVQQVSTSRGMITDRSGRPLAVSVPVKAIWADPKEVHDAGGISVGDRWKALANALNIPLDQLSARINANPKGRFIYLARQVNPDMADYIKKLKLPGIHLREESRRYYPSGEVTAHLIGFTNVDSQGIEGVEKSFDKWLTGQPGERIVRKDRYGRVIEDISSTDSQAAHNLALSIDERLQALVYRELNNAVAFNKAESGSAVLVDVNTGEVLAMANSPSYNPNNLSGTPKEAMRNRTITDVFEPGSTVKPMVVMTALQRGVVRENSVLNTIPYRINGHEIKDVARYSELTLTGVLQKSSNVGVSKLALAMPSSALVDTYSRFGLGKATNLGLVGERSGLYPQKQRWSDIERATFSFGYGLMVTPLQLARVYATIGSYGIYRPLSITKVDPPVPGERVFPESIVRTVVHMMESVALPGGGGVKAAIKGYRIAIKTGTAKKVGPDGRYINKYIAYTAGVAPASQPRFALVVVINDPQAGKYYGGAVSAPVFGAIMGGVLRTMNIEPDALTTGDKNEFV
